In PubChem BioAssay AID493014 (National Center for Advancing Translational Sciences (NCATS), 2011):
The campaign covered roughly 340,000 compounds. About 170 (0.05%) were called active. This list was built around the results that the source calls inconclusive (neither active nor inactive); the mix of calls is not that of the screen. Calls come from the whole dose curve; as a rule, active = well fitted inhibition curve with a large enough effect in the signal ratio, with a control signal flat (not every such curve was filed as active); inconclusive = small, poorly fitted or top-dose-only effect, or effect the other way, or a change in a side signal; inactive = flat fitted curve, though single readings scatter; the % refers to the signal ratio. Potencies beside an inconclusive call are fits to weak or partial responses and may not hold up.

Test: qHTS Assay to Find Inhibitors of Chronic Active B-Cell Receptor Signaling;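 for activity change, negative = inhibition: plate controls were basal doxycycline-induced cells for no effect and cells given 10 µM MG132 for full effect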
Details: ABC-DLBCL IkBa-CBG/CBR reporter, luminescence ratio (green luciferase fused to IkBa over red control in TMD8 lymphoma cells), 4 h; activity change, negative = inhibition: at 46.1 µM (top of the series)
Source text: NIH Molecular Libraries Probe Production Network [MLPCN] NIH Chemical Genomics Center [NCGC] MLPCN Grant: 1 R03 DA031086-01A1 PI Name: Dr. R. Eric Davis NCGC Assay Overview: Diffuse large B-cell lymphoma (DLBCL) is the most common category of non-Hodgkin lymphoma, with ~20,000 new cases per year in the United States. DLBCL should be regarded as a collection of different neoplasms. Microarray gene expression analysis has defined two principal types of DLBCL, named for their similarity to normal B cell stages or activation states: a germinal center B-cell (GCB) type, and an activated B-cell (ABC) type. In ABC-DLBCL, a constitutive high-level activity of the NF-kappaB family of transcription factors has been observed (1) and NF-kappaB target genes are more highly expressed in ABC primary tumors than in GCB tumors. Functional studies have shown a constitutive high-level activity of the IkappaB (inhibitor of kappa-B) kinase (IKK) complex. […] Further analysis of DLBCL primary tumors for NF-kappaB target gene expression imply that although CARD11 is required for constitutive IKK activity in all ABC-DLBCL lines, mutations in CARD11 may be the root cause of IKK activation only in lines or tumors with such mutations. In other words, CARD11 mutations may explain NF-kappaB activation in only 10% of ABC-DLBCL cases. […] This process has been termed 'chronic active BCR signaling' (CABS). The goal of this screen is to find small-molecule inhibitors of the CABS pathway found in ABC-DLBCL lines using a cell-based assay that measures IkappaBalpa stability, which has already been extensively validated in the OCI-Ly3 line (PubChem AID:445; REF: 4). […] The assay uses green (CBG68) and red (CBR) emitting beetle luciferases [Chroma-GloTM developed by Promega Corp.] where the green luciferase is fused to IkappaBalpha and the red luciferase is present in its native state. Both luciferase genes are stably present in the TMD8 human ABC DLBCL cell line, but their expression is under the control of tetracycline-inducible promoters. Following the addition of doxycycline to induce expression of the luciferases, the green luminescence in control cultures rises only slowly because the CBG fusion partner IkappaBalpha is targeted by IKK activity for rapid degradation. In contrast, green luminescence rises rapidly in the presence of proteasome inhibitors or IKK inhibitors. The rise in red luminescence of CBR is not affected by proteasome or IKK inhibitors, and serves as normalization for cell number and nonspecific effects. Compounds were screened as a concentration-titration series that ranged from 46 uM to 3 nM.
NCGC Assay Protocol Summary: Cells were seeded in 1536-well plates at 5000 cells/4uL in IMDM medium containing 0.5% FBS, w/o phenol red, 1% penicillin/streptomycin. Then, 23 nL of compounds or DMSO were delivered to each well using a pin tool. One uL 20ng/ml doxycycline was then dispensed into white solid 1536-well plates and the plates were incubated at 37C/5% C02 in a cell incubator for 4 hrs. Then 4 uL luminescent substrate mix (in-house prepared: 150 mM Tris-Cl, pH 7.6, 3 mM MgCl2, 1% Triton X-100, 5 mM DTT, 0.2 mM CoA, 0.15 mM ATP, 5 mM D-luciferin, final concentrations) was added to each well. The plate was incubated at r.t. for 10-15 min. The plates were measured on a ViewLux plate reader for green luminescence (540/20 nm filter) and red luminescence (618/8 nm filter). The green and red luminescent signals were corrected for red and green luminescence filter overlap using previously determined filter calibration constants (determined using the procedure outlined in the Promega Technical Manual; REF 4). The %Activity was determined from the ratio of corrected green/red luminescent values. MG132 were used as control. […] Red luminescent %Activity was normalized to the difference between red luminesence in basal cells (0%Activity) and zero luminescence (-100% Activity). […]
Potency is the fitted concentration of half-maximal effect.

Structure (SMILES)	Potency	activity change, negative = inhibition
O=C(Nc1ccccc1)c1ccccc1O	inconclusive: 25.1 µM [falling, single point]	
CCCCOC(=O)n1c(=S)oc2cc(Cl)ccc21	inconclusive: 17.8 µM [falling, partial curve]	
CC(=O)NS(=O)(=O)c1ccc(NC(=O)/C=C/c2ccc(C)o2)cc1		inconclusive: -0.386%
COc1cc(NC(=S)NCCc2c[nH]c3ccccc23)c(OC)cc1Cl		inconclusive: -0.142%
Clc1ccc(SCc2nc3ccccc3[nH]2)cc1		inconclusive: 2.39%
C=CCn1c(SCC(=O)c2cccs2)nc2sc(C)cc2c1=O		inactive
COC(=O)c1ccc(NC(=O)c2ccccc2N(C)S(=O)(=O)c2ccccc2)cc1		inconclusive: 10.7%
CC1(c2ccccc2)NC(=O)N(CC(=O)Nc2ccc(S(N)(=O)=O)cc2)C1=O (stereo not drawn)		inconclusive: -0.332%
CC(=O)NC(CC(=O)Nc1nccs1)c1ccccc1 (stereo not drawn)	inconclusive: 31.6 µM [rising, single point]	
Cc1cc(N/N=C/c2ccccc2O)c2ccccc2n1	inconclusive: 22.4 µM [falling, single point]	
COC(=O)C1C(O)=C(C=NCC(C)N=CC2=C(O)C(C(=O)OC)C(C)(C)CC2=O)C(=O)CC1(C)C (stereo not drawn)		inconclusive: -8.74%
Cc1[nH]n(C)c(=O)c1[N+](=O)[O-]		inactive
C/C(=N\NC(=O)c1ccccc1OCCOc1ccccc1)c1ccccc1F	inconclusive: 3.26 µM [falling, full curve, poor fit]	
O=C(CSc1nc2nc(-c3cccs3)cc(C(F)(F)F)c2c(=O)[nH]1)Nc1ccc(F)c(F)c1	inconclusive: 11.2 µM [falling, partial curve]	
COc1ccc(Nc2cc(C)c3ccc(O)cc3n2)cc1		inconclusive: 10.2%
COc1ccc2nc(NC(=O)CS(=O)(=O)c3ccc(C)cc3)sc2c1		inconclusive: -28%
Cc1ccc(NC(=O)N2CCCC2C(=O)NCC2CCCO2)cc1 (stereo not drawn)		inconclusive: 3.35%
Cc1ccc(N(C(=O)c2nsc(Cl)c2Cl)C(C(=O)NC2CCCC2)c2ccc(O)cc2)cc1C (stereo not drawn)		inconclusive: -0.671%
CCCCOC(=O)c1ccc(NC(=O)C(=O)NCC2CCCO2)cc1 (stereo not drawn)		inconclusive: -13.8%
Cc1ccc(Cl)cc1N1CCN(C(=O)C2CCN(S(=O)(=O)c3cccnc3)CC2)CC1		inactive
CCOc1ccc(C(=O)Nc2c3c(nn2-c2ccc(C)cc2)CS(=O)C3)cc1OCC (stereo not drawn)	inconclusive: 3.66 µM [falling, partial curve, poor fit]	

Structure (SMILES)	Potency	activity change, negative = inhibition
NC(=S)n1[nH]c(-c2ccccc2)c(N=Nc2ccccc2C(=O)N2CCOCC2)c1=O		inconclusive: 5.97%
NNC(=O)c1oc2nc(-c3cccs3)cc(-c3ccco3)c2c1N		inconclusive: 3.62%
CN(C)S(=O)(=O)c1ccc(C(=O)Nc2cc(S(=O)(=O)Nc3ccccc3Cl)ccc2N2CCCCC2)cc1		inactive
Cc1ccc(S(=O)(=O)N2CCOCC2)cc1NC(=O)COC(=O)c1ccc(OCc2c(C)noc2C)cc1		inconclusive: -12.3%
O=C(N/N=C/c1ccccn1)c1ccc(Br)cc1	inconclusive: 29.1 µM [falling, single point]	
Nc1ccc(/C=C/C(=O)c2ccco2)cc1	inconclusive: 16.4 µM [falling, partial curve, poor fit]	
COc1cc(C2N(c3cccc(Cl)c3)C(=O)C3CCCN32)cc(OC)c1OC (stereo not drawn)		inconclusive: 5.9%
CC(=O)N(C)c1ccc(OCC(O)COc2ccc(N(C)C(C)=O)cc2)cc1		inconclusive: 4.43%
CC(C)(C)c1ccccc1OCC(=O)Nc1ccccc1C(=O)NCc1cccnc1		inconclusive: 1.3%
CCCN1C(=O)c2ccc(C(=O)Nc3ccccc3C(=O)O)cc2C1=O	inconclusive: 31.6 µM [rising, partial curve]	
Cc1ccc(NC(=S)N2CCN(S(=O)(=O)c3ccc(C)cc3)CC2)cc1		inactive
COc1cc(OC)cc(C(=O)Nc2ccn(C)n2)c1		inconclusive: -14.1%
O=C(NCc1ccccn1)c1coc(=O)c(Br)c1		inconclusive: 0.0566%
COc1ccc(C(=O)NCC2OCCc3ccccc32)c(O)c1 (stereo not drawn)		inconclusive: 2.31%
Cc1cc(NCCCN(C)C)n2nc(-c3cccs3)cc2n1	inconclusive: 25.9 µM [falling, partial curve, poor fit]	
CCOC(=O)c1ccc(N2CCOCC2)c(NC(=O)c2nccnc2C(=O)O)c1		inactive
COc1ccc(CCN(C)C(=O)c2cc(-c3ccccc3)nc3ccc(C)cc23)cc1OC	inconclusive: 3.55 µM [falling, partial curve]	
CN1c2ccccc2-c2nc3ccccc3n2C1c1ccccn1 (stereo not drawn)		inactive
CC1CCN(C(=O)c2ccc(COc3ccccc3Cl)o2)CC1		inconclusive: -5.02%
Cc1cc(C(=O)COc2ncnc3sccc23)c(C)n1C1CC1		inconclusive: 7.28%
COc1ccc(-c2noc(-c3ccccc3-c3ccccc3)n2)cc1OC		inconclusive: 1.45%

Structure (SMILES)	Potency	activity change, negative = inhibition
C/C(=N\Nc1nc(N)cc(Cl)n1)c1cccc([N+](=O)[O-])c1		inconclusive: 7.51%
CCCn1c(C2CCCN2c2nc(-c3cccc(Br)c3)cs2)nc2cc(Cl)c(Cl)cc21 (stereo not drawn)		inactive
CCCCC(=O)NC(c1ccc(OC)c(OC)c1)c1c(O)ccc2ccccc12 (stereo not drawn)		inactive
O=C(N/N=C/c1ccccn1)c1cccc([N+](=O)[O-])c1		inconclusive: -21.6%
COc1cc(OC)cc(C(=O)OCC(=O)NC2CCCCCC2)c1		inconclusive: 3.69%
Cc1cc(Cl)ccc1OCC(=O)N1CCCN(C(=O)COc2ccc(Cl)cc2C)CC1		inconclusive: -2.76%
CC(=O)N1CCC2(CC1)NC(=O)N(c1ccccc1)N2		inconclusive: 6.91%
O=C(Nc1cccc(NC(=O)c2ccc(Cl)cc2Cl)c1)c1cccnc1		inconclusive: -7.3%
Cc1nc(-c2ccc(Cl)cc2)sc1C1(C)CC(c2ccc(OC(F)(F)F)cc2)=NO1 (stereo not drawn)		inconclusive: -2.36%
COc1ccc(/C(N)=N/OC(=O)C2CCCCC2)cc1		inconclusive: 6.93%
CC(=O)NCCc1nc2ccccc2n1Cc1ccc(Cl)cc1		inactive
Cc1cccc(C(=O)Nc2ccccc2C(=O)OCC(=O)Nc2ccc(C#N)cc2)c1	inconclusive: 8.2 µM [falling, partial curve]	
COC(=O)c1ccc(CN2CCCCC2)cc1		inactive
O=C(NCc1ccncc1)C12CC3CC(CC(C3)C1)C2		inactive
COc1ccc(-c2cn3ccccc3n2)cc1[N+](=O)[O-]		inconclusive: 3.84%
CCC(C)C(=O)Nc1ccc([N+](=O)[O-])cc1OC (stereo not drawn)		inconclusive: 2.59%
Nc1nc(SCC(=O)c2cccs2)n[nH]1		inconclusive: -1.97%
O=C(NCc1ccccc1)C1=C[C@@H](c2coc3ccccc3c2=O)C[C@@H](OCCCCO)O1	inconclusive: 5.01 µM [rising, partial curve, poor fit]	
Cc1ccc2c(=O)oc(N(C)C)nc2c1	inconclusive: 35.5 µM [falling, single point]	
Cc1cccc(CN2CCCC(C(=O)c3ccc4c5c(cccc35)CC4)C2)n1 (stereo not drawn)		inactive
CCCSc1nsc(SCCC)c1C(N)=O		inconclusive: -1.7%

Nothing new here: entries from further up.
Structure (SMILES)	Potency	activity change, negative = inhibition
Cc1cc(Cl)ccc1OCC(=O)N1CCCN(C(=O)COc2ccc(Cl)cc2C)CC1		inconclusive: -2.76%
CC(=O)N1CCC2(CC1)NC(=O)N(c1ccccc1)N2		inconclusive: 6.91%
O=C(Nc1cccc(NC(=O)c2ccc(Cl)cc2Cl)c1)c1cccnc1		inconclusive: -7.3%
Cc1nc(-c2ccc(Cl)cc2)sc1C1(C)CC(c2ccc(OC(F)(F)F)cc2)=NO1 (stereo not drawn)		inconclusive: -2.36%
COc1ccc(/C(N)=N/OC(=O)C2CCCCC2)cc1		inconclusive: 6.93%
CC(=O)NCCc1nc2ccccc2n1Cc1ccc(Cl)cc1		inactive
Cc1cccc(C(=O)Nc2ccccc2C(=O)OCC(=O)Nc2ccc(C#N)cc2)c1	inconclusive: 8.2 µM [falling, partial curve]	
COC(=O)c1ccc(CN2CCCCC2)cc1		inactive
O=C(NCc1ccncc1)C12CC3CC(CC(C3)C1)C2		inactive
COc1ccc(-c2cn3ccccc3n2)cc1[N+](=O)[O-]		inconclusive: 3.84%

Further structures.

Structure (SMILES)	Potency	activity change, negative = inhibition
Oc1ccc(/C=N/Nc2cc(N3CCCC3)nc(N3CCCC3)n2)cc1		inconclusive: -25.6%
COc1ccccc1OCCCCOc1ccccc1F		inconclusive: 2.72%
O=[N+]([O-])c1cc(Br)cc(C=Nc2ccc3c(c2)OCO3)c1O		inactive
COc1ccc(C(=O)NC(=S)N2CCNC(=O)C2CC(=O)OC(C)C)cc1 (stereo not drawn)		inconclusive: 16.7%
O=C(c1ccc(S(=O)(=O)Cc2ccccc2Cl)c([N+](=O)[O-])c1)N1CCN(c2ccccn2)CC1		inconclusive: -13.2%
FC(F)(F)c1cc(CCN2C(=S)NC[C@@H]2CC2CCCCC2)cc(C(F)(F)F)c1		inconclusive: 3.16%
CC(=O)Nc1cccc(NC(=O)Cc2nc(-c3ccccc3)sc2-c2ccc(C)cc2)c1		inconclusive: -9.27%
CNC(=O)Cn1nc(-c2ccc(Cl)cc2)c2ccccc2c1=O		inconclusive: 0.756%
COc1ccnc(CSC(N)=Nc2ccccc2C(F)(F)F)c1	inconclusive: 29.1 µM [falling, single point]	
COc1cc(OC)c(C(=O)NC2CCCCCC2)cc1OC		inconclusive: 8.65%
COC(=O)c1c(-c2ccccc2)csc1NC(=O)c1ccco1		inconclusive: -1.81%
Cc1csc(NC(=O)/C=C/c2ccc3c(c2)OCO3)n1		inconclusive: -17%
CCCSc1nc(=O)n2cccc(C)c2n1	inconclusive: 16.4 µM [falling, partial curve]	
C=CC(=O)N(CCC)C(c1ccccc1)c1ccccc1OC (stereo not drawn)		inconclusive: -0.0483%
Cc1ccccc1Cn1cc(CCC(=O)N2CCOCC2)c2ccccc21		inactive
CCc1ccc(-c2csc(-c3c[nH]c4ccccc34)n2)cc1	inconclusive: 20.6 µM [rising, single point]	
O=C(Nc1nnc(-c2ccco2)o1)c1ccc(Cl)s1	inconclusive: 31.6 µM [rising, single point]	
Cc1cc(C)c(NS(=O)(=O)c2ccc3c(c2)n(C)c(=O)n3C)c(C)c1		inconclusive: 5.83%
CCN(CC)CCOc1cccc(C(C)C)c1		inconclusive: 13.1%
COc1ccc(C(=O)Cn2c(NCCO)nc3ccccc32)cc1OC	inconclusive: 29.1 µM [falling, single point]	
